For four molecules, binding results are on record in article PMC11039992.

For experiment [1], the target named is T1, MAC-U11/U12-65K (human) (UniProt Q96LT9).
T1 sequence: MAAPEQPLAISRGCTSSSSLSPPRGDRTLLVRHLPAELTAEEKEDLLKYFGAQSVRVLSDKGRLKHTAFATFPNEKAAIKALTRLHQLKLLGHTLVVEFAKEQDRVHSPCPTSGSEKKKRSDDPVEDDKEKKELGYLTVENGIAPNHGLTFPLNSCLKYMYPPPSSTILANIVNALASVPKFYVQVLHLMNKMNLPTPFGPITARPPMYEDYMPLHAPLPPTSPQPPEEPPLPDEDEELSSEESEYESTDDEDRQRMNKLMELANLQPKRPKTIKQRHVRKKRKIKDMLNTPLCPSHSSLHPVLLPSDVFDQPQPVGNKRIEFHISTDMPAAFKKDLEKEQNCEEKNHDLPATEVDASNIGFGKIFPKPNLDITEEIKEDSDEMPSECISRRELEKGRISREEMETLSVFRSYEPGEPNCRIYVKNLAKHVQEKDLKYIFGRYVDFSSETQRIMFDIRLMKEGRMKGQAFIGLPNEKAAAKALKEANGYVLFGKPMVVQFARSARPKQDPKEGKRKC
Briefly: proximity labelling; BioID: N-terminally MAC-tagged bait in Flp-In T-REx 293 cells, induced with 2 μg/ml tetracycline and 50 μM biotin for 24 h; three independent replicates; mass spectrometry.

Experiment [2] has as its target T2, MAC-RBM41-WT (human) (UniProt Q96IZ5).
T2 sequence: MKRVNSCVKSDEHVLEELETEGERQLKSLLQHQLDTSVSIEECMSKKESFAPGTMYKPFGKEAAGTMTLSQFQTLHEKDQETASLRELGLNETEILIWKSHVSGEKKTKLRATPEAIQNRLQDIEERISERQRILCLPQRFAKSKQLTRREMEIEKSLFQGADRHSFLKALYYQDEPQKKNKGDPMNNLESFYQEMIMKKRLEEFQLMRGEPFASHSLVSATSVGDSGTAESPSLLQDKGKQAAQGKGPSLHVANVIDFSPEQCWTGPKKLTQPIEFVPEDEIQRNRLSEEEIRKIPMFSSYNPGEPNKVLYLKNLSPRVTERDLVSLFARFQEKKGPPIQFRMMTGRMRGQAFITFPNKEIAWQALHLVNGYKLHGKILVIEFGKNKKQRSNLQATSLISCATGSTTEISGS
Described as above.

Results are given in words; binding and its absence hold for the method and conditions named. In cells and extracts the contact can be indirect. A yes stands for co-enrichment or nearness to the bait. Other partners may have been found. For some assays here: A no says only that the protein was not detected with the bait.

B1: U11-35K (SNRNP35) (protein, UniProt Q16560 1-246)
chain: MNDWMPIAKEYDPLKAGSIDGTDEDPHDRAVWRAMLARYVPNKGVIGDPLLTLFVARLNLQTKEDKLKEVFSRYGDIRRLRLVRDLVTGFSKGYAFIEYKEERAVIKAYRDADGLVIDQHEIFVDYELERTLKGWIPRRLGGGLGGKKESGQLRFGGRDRPFRKPINLPVVKNDLYREGKRERRERSRSRERHWDSRTRDRDHDRGREKRWQEREPTRVWPDNDWERERDFRDDRIKGREKKERGK
Turning to B1, the binding result in experiment [1] was “binds”; in experiment [2] it was “no binding”.

B2: U11/U12-20K (ZMAT5) (protein, UniProt Q9UDW3 1-170)
chain: MGKRYFCDYCDRSFQDNLHNRKKHLNGLQHLKAKKVWYDMFRDAAAILLDEQNKRPCRKFLLTGQCDFGSNCRFSHMSERDLQELSIQVEEERRAREWLLDAPELPEGHLEDWLEKRAKRLSSAPSSRAEPIRTTVFQYPVGWPPVQELPPSLRAPPPGGWPLQPRVQWG
Consider B2, for which the binding entry in experiment [1] was “binds”; in experiment [2], “no binding”.

B3: U11-48K (SNRNP48) (protein, UniProt Q6IEG0 1-339)
chain: MEGEPPPVEERRRLQEELNEFVESGCRTLEEVTASLGWDLDSLDPGEEEAAEDEVVICPYDSNHHMPKSSLAKHMASCRLRKMGYTKEEEDEMYNPEFFYENVKIPSITLNKDSQFQIIKQARTAVGKDSDCYNQRIYSSLPVEVPLNHKRFVCDLTQADRLALYDFVVEETKKKRSDSQIIENDSDLFVDLAAKINQDNSRKSPKSYLEILAEVRDYKRRRQSYRAKNVHITKKSYTEVIRDVINVHMEELSNHWQEEQEKAEDDAEKNEERRSASVDSRQSGGSYLDAECSRHRRDRSRSPHKRKRNKDKDKNCESRRRKERDGERHHSHKRRKQKI
For B3, the binding result in experiment [1] is “binds”; in experiment [2], “no binding”.

B4: U11-59K (PDCD7) (protein, UniProt Q8N8D1 1-485)
chain: MALPPFFGQGRPGPPPPQPPPPAPFGCPPPPLPSPAFPPPLPQRPGPFPGASAPFLQPPLALQPRASAEASRGGGGAGAFYPVPPPPLPPPPPQCRPFPGTDAGERPRPPPPGPGPPWSPRWPEAPPPPADVLGDAALQRLRDRQWLEAVFGTPRRAGCPVPQRTHAGPSLGEVRARLLRALRLVRRLRGLSQALREAEADGAAWVLLYSQTAPLRAELAERLQPLTQAAYVGEARRRLERVRRRRLRLRERAREREAEREAEAARAVEREQEIDRWRVKCVQEVEEKKREQELKAAADGVLSEVRKKQADTKRMVDILRALEKLRKLRKEAAARKGVCPPASADETFTHHLQRLRKLIKKRSELYEAEERALRVMLEGEQEEERKRELEKKQRKEKEKILLQKREIESKLFGDPDEFPLAHLLEPFRQYYLQAEHSLPALIQIRHDWDQYLVPSDHPKGNFVPQGWVLPPLPSNDIWATAVKLH
In the case of B4, the values for the binding result in experiment [1] and in experiment [2] were “binds” and “no binding”, respectively.
